The target of assay [1] is Thermus scotoductus OLD C-terminal region (residues 370-525) (Thermus scotoductus) (UniProt E8PLM2). Put plainly: SEC-MALS; 4 mg/ml loaded on Superdex 200 10/300 Increase; 20 mM HEPES pH 7.5, 150 mM KCl, 5 mM MgCl2, 1 mM DTT; 0.7 ml/min; Ts^FL also in different nucleotide states; both purified.
Assay [2] deals with full-length Thermus scotoductus OLD (Thermus scotoductus) (UniProt E8PLM2). Nature of the assay: crystal structure; native Ts^FL at 10 mg/ml, sitting drop at 20°C, 0.1 M NaOAc pH 5.8, 0.3 M AmSO4, 7% PEG MME 2000, 5 mM SmCl3 or PrCl3; platinum-soaked; nucleotide-free; monomer in the asymmetric unit, dimer by crystal symmetry; 2.20 Å; both purified.

The values below come from PMC7049728, “The full-length structure of Thermus scotoductus OLD defines the ATP hydrolysis properties and catalytic mechanism of Class 1 OLD family nucleases” (Nucleic Acids Research, 2020).

These are yes or no findings as the source states them, for the method shown. Some results given as binding are weak or reduced against the parent protein; the word gives no strength.

B1: Thermus scotoductus OLD C-terminal region (residues 370-525) (domain or fragment, UniProt E8PLM2 370-525)
chain: AKRALLVEGYGDRVAALQLFNQLEVDPDAECIAVVDCGGKAGIELIVGVCKALDIPFVVVHDEDVWPIDERADEETRRKQEQENKAEQEKNQRIQACAGAERVFVVQPSLEAALGIGRNASDKPYRIAEILKTVDVGQPPDALRPFVEAIRQVTRP
Regarding B1, in assay [1], the binding entry was “no binding (tested: 4 mg/ml loaded)”.

B2: full-length Thermus scotoductus OLD (enzyme, UniProt E8PLM2 1-528, looked up)
chain: MLKRLQVKNFRCLEDIDLPLGPLTAIVGPNGAGKTTILRAIDLVLGDVWPSLRSFRIPQDFINFDTTRAIEITVHFDPPYTQGSFNITAFRLTCKGEDADFHVDLEPLDEGGNVPRYPSGNPLRVGTDMRNHARVLFLDHRRNLAQHLPSIRGSILGRLLQPVRREFKLQDNFKQVYEQAMDLLRTEQVKQIEKTIAETAKQMLGFLGKDAMKSMEIGFGFADPANPFNSLRLQYRESDLTLPGDELGLGIQSAIVVGIFEAFRQLGEKIGTVIIEEPEMYLHPQAQRYFYRLLCEMADKDQCQIIYSTHSPIFADVNRFEALRLVRKDRDDRVVVSYVREEDKSALDNVRNRFKLGGRFDTARNEVLFAKRALLVEGYGDRVAALQLFNQLEVDPDAECIAVVDCGGKAGIELIVGVCKALDIPFVVVHDEDVWPIDERADEETRRKQEQENKAEQEKNQRIQACAGAERVFVVQPSLEAALGIGRNASDKPYRIAEILKTVDVGQPPDALRPFVEAIRQVTRPMEE
notes: Thermus scotoductus OLD (Class 1 OLD family nuclease), UniProt E8PLM2, full-length, residues 1-525; codon-optimised synthetic gene in pET21b; Dimer by SEC-MALS and by crystal symmetry; The crystal model holds residues 1-142, 149-237 and 245-525; also called Ts^FL; Ts OLD; source: E. coli BL21(DE3), purified (65°C heat step, nickel column, HiTrap Q, SEC)
Consider B2, for which the binding entry in assay [2] is recorded as “binds”.
